Laboratory results published in patent publication US20220275390A1, “RUBISCO-BINDING PROTEIN MOTIFS AND USES THEREOF” (The Trustees of Princeton University, priority 2019, published 2022).
These are yes or no findings as the source states them, for the method shown. Some binding calls cover weakened binding; strength is not graded here.

B1: 24 amino acid EPYC1 fragment spanning RBM 2 (peptide)
peptide: TNRVSPTRSVLPANWRQELESLRN
B2: EPYC1 RBM 2 peptide (middle 16 amino acids of EPYC1 RBM 2) (peptide)
peptide: TRSVLPANWRQELESLRN
B3: … (peptide)
peptide: ANWRQELESLRN
B4: … (peptide)
peptide: TRSVLPANW
B5: … (peptide)
peptide: TRSVLPANWRQE
B6: … (peptide)
peptide: VLPANWRQELESLRN
B7: … (peptide)
peptide: RQELESLRN
B8: trsvlpanwrqaleslrn (peptide)
peptide: TRSVLPANWRQALESLRN
B9: trsvlpanwaqeleslrn (peptide)
peptide: TRSVLPANWAQELESLRN
B10: tasvlpanwrqeleslrn (peptide)
peptide: TASVLPANWRQELESLRN
B11: trsvlpanwrqeaeslrn (peptide)
peptide: TRSVLPANWRQEAESLRN
B12: trsvlpanwrqeleslan (peptide)
peptide: TRSVLPANWRQELESLAN
B13: trsvlpaawrqeleslrn (peptide)
peptide: TRSVLPAAWRQELESLRN
B14: trsvlpanwrqelaslrn (peptide)
peptide: TRSVLPANWRQELASLRN
B15: trsvlpanwraeleslrn (peptide)
peptide: TRSVLPANWRAELESLRN
B16: trsvlpanarqeleslrn (peptide)
peptide: TRSVLPANARQELESLRN
B17: trsvlpanwrqelesarn (peptide)
peptide: TRSVLPANWRQELESARN
B18: SEQ ID NO 14 (peptide)
peptide: PAAPSTSRSRSVTNWRDQVEAEAARAATA
B19: SEQ ID NO 18 (peptide)
peptide: KSKPEIKRTALPADWRKGL
B20: SEQ ID NO 9 (peptide)
peptide: TELSEANRPRTRPDWRNQL
B21: SEQ ID NO 24 (peptide)
peptide: SGRVKTVKVAARGSWRESSTATVQASRAS
B22: SEQ ID NO 26 (peptide)
peptide: RRDLKIKRTVLPANWRDSLDEDEPAKPAA
B23: SEQ ID NO 22 (peptide)
peptide: ASSAPAPARSSSASWRDAAPASSAPARSS
B24: SEQ ID NO 5 (peptide)
peptide: RNASPVRRTAIPANWRDAL
B25: SEQ ID NO 4 (peptide)
peptide: KAQPQQPGRSTSADWRRLVSGGDAAGKDA
B26: SEQ ID NO 19 (peptide)
peptide: ASSAPAPARSSSASWRDAPASSSSSSADK
B27: SEQ ID NO 16 (peptide)
peptide: GAEEEAAAAAVPDDWRQAAEAEAYAPAGT
B28: SEQ ID NO 11 (peptide)
peptide: SPSERLAREARMRDWRARV
B29: SEQ ID NO 7 (peptide)
peptide: PPAPAPAPAKTKPDWREQAQAPVQAAAAA
B30: SEQ ID NO 13 (peptide)
peptide: PSVSPSASAVVPRDWRRELQSSAGEGAES
B31: SEQ ID NO 6 (peptide)
peptide: SGADSRSPSPRTLAWREAAEAQEREQESK
B32: SEQ ID NO 21 (peptide)
peptide: KKAVTPSRSALPSNWKQELESLRSSSPAP
B33: SEQ ID NO 15 (peptide)
peptide: APAPVSFRSASRSSWRDEVAAEAVPVPAA
B34: SEQ ID NO 10 (peptide)
peptide: ADADRSDSSRRPVNWRDELQSLKATREPN
B35: SEQ ID NO 8 (peptide)
peptide: ASDSEGGETVTKANWREALAALHDAGSDG
B36: SEQ ID NO 3 (peptide)
peptide: RGTGDSPTRRAFGDWRKNL
B37: SEQ ID NO 17 (peptide)
peptide: GDAASARASTVMSNWRDVIDSGAEVSAAP
B38: SEQ ID NO 23 (peptide)
peptide: TNRVSPTRSVLPANWRQELESLRNGNGSS
B39: SEQ ID NO 12 (peptide)
peptide: ARVVVSAGSRAPSNWRQQVDGGSNGNGNG
B40: SEQ ID NO 25 (peptide)
peptide: RSATTGRSGSVPKDWRSSL
B41: SEQ ID NO 20 (peptide)
peptide: KKAVTPSRSALPSNWKQELESLRSNSPAP

These binders were tested against Chlamydomonas reinhardtii Rubisco holoenzyme (L8S8) (Chlamydomonas reinhardtii) (UniProt P00877) (assay: cryo-EM structure, 2.8 Å).

binding	Binder
binds	B1

What follows are binders tested against Chlamydomonas reinhardtii Rubisco holoenzyme (L8S8) (Chlamydomonas reinhardtii) (UniProt P00877) (assay: SPR, steady-state fit).

binding	Binder
binds	B1

What follows are binders tested against Chlamydomonas reinhardtii Rubisco holoenzyme (L8S8) (Chlamydomonas reinhardtii) (UniProt P00877) (assay: SPR, response signal).

binding	Binder
binds	B2
binds	B3
binds	B4
binds	B5
binds	B6
binds	B7

These binders were tested against Chlamydomonas reinhardtii Rubisco holoenzyme (L8S8) (Chlamydomonas reinhardtii) (UniProt P00877) (assay: SPR, Rubisco-binding signal).

binding	Binder
binds	B8
binds	B9
binds	B10
binds	B11
binds	B12
binds	B2
binds	B13
binds	B14
binds	B15
binds	B16
binds	B17

What follows are binders tested against Chlamydomonas reinhardtii Rubisco holoenzyme (L8S8) (Chlamydomonas reinhardtii) (UniProt P00877) (assay: SPR, Rubisco immobilized, peptide in solution).

binding	Binder
binds	B1

The binders below were run against Chlamydomonas reinhardtii Rubisco holoenzyme (L8S8) (Chlamydomonas reinhardtii) (UniProt P00877) (assay: cryo-EM, substitution arrays, SPR, yeast two-hybrid (summary of Example 2)).

binding	Binder
binds	B1

The binders below were run against Chlamydomonas reinhardtii Rubisco holoenzyme (L8S8) (Chlamydomonas reinhardtii) (UniProt P00877) (assay: SPR, purified Rubisco immobilized, synthetic peptide in solution (FIG. 13)).

binding	Binder
binds	B18
binds	B19
binds	B20
binds	B21
binds	B22
binds	B23
binds	B24
binds	B25
binds	B26
binds	B27
binds	B28
binds	B29
binds	B30
binds	B31
binds	B32
binds	B33
binds	B34
binds	B35
binds	B36
binds	B37
binds	B38
binds	B39
binds	B40
binds	B41

The binders below were run against Chlamydomonas reinhardtii Rubisco holoenzyme (L8S8) (Chlamydomonas reinhardtii) (UniProt P00877) (assay: SPR on purified Rubisco, response normalized to 1,000 Rubisco RUs, +/-SD, n=3; the text speaks of fifteen amino acid-long synthetic peptides).

binding	Binder
binds	B19
binds	B20
binds	B24
binds	B28
binds	B36
binds	B40
